Some of these results come from one statement about several compounds together. For some of these results: The name of at least one read-out is uncertain.
Assays:
[1] = test system: Rhipicephalus (Boophilus) microplus; experiment: In vitro evaluation of systemic activity against female engorged cattle ticks; settings: 1 μl injected into abdomen of engorged adult female cattle ticks; assessed after 7 days
Rhipicephalus microplus = experiment: In vitro evaluation of contact activity against larval cattle ticks; settings: coated glass vial contact, after 48 h
Ctenocephalides felis [2] = experiment: In vitro evaluation of ingestion activity against adult cat fleas; settings: adult cat fleas fed on citrated cattle blood with test substance through parafilm membrane; after 48 h
Ctenocephalides felis [3] = experiment: In vitro evaluation of contact activity against adult cat fleas; settings: coated glass vial contact, after 48 h

With `Cc1cc(C2=NOC(c3cc(Cl)cc(C(F)F)n3)(C(F)(F)F)C2)ccc1C(=O)NCC(=O)NCC(F)(F)F` (single isomer, unassigned) [Example 1.13] the “EC50, acaricidal activity (no eggs laid or eggs infertile)” value (from here on “EC50 … (no eggs laid or eggs infertile)”) [1] was < 0.5 μg/tick and the “EC50, acaricidal activity (dead or moribund tick larvae)” value (from here on “EC50 … (dead or moribund tick larvae)”) (Rhipicephalus microplus) was < 0.05 μg/cm^2.
In the case of `Cc1cc(C2=NOC(c3cc(C(F)(F)F)cc(C(F)(F)F)n3)(C(F)(F)F)C2)ccc1C(=O)NCC(=O)NCC(F)(F)F` (single isomer, unassigned) [Example 1.7], the “EC50 … (no eggs laid or eggs infertile)” value [1] is reported as < 0.5 μg/tick and the “EC50 … (dead or moribund tick larvae)” value (Rhipicephalus microplus) is reported as < 0.05 μg/cm^2.
In the case of `Cc1cc(C2=NOC(c3cc(Cl)cc(C(F)F)n3)(C(F)(F)F)C2)ccc1C(=O)NCC(=O)NCC(F)(F)F` (single isomer, unassigned) [Example 1.14], the “EC50, insecticidal activity against fleas (killed or moribund)” value (“EC50 … (killed or moribund)” below) (Ctenocephalides felis [2]) is reported as < 20 ppm.
With `Cc1cc(C2=NOC(c3cc(Cl)cc(C(F)(F)F)n3)(C(F)(F)F)C2)ccc1C(=O)N[C@H]1C[C@H](C(F)(F)F)C1` (single isomer, unassigned) [Example 2.2, 4-((S*)-5-(4-chloro-6-(trifluoromethyl)pyridin-2-yl)-5-(trifluoromethyl)-4,5-dihydroisoxazol-3-yl)-2-methyl-N-((trans)-3-(trifluoromethyl)cyclobutyl)benzamide] the “EC50 … (killed or moribund)” value (Ctenocephalides felis [2]) was < 20 ppm.
With `Cc1cc(C2=NOC(c3cc(C(F)(F)F)cc(C(F)F)n3)(C(F)(F)F)C2)ccc1C(=O)NC1CN(S(C)(=O)=O)C1` (single isomer, unassigned) [Example 1.3] the “EC50 … (no eggs laid or eggs infertile)” value [1] was < 0.5 μg/tick, the “EC50, insecticidal activity (dead or moribund fleas)” value (“EC50 … (dead or moribund fleas)” for short) (Ctenocephalides felis [3]) was < 5 μg/cm^2 and the “EC50 … (dead or moribund tick larvae)” value (Rhipicephalus microplus) was < 0.05 μg/cm^2.
For `Cc1cc(C2=NOC(c3cc(C(F)(F)F)cc(C(F)(F)F)n3)(C(F)(F)F)C2)ccc1C(=O)NCC(=O)NCC(F)(F)F` (single isomer, unassigned) [Example 1.8], the “EC50 … (no eggs laid or eggs infertile)” value [1] was < 0.5 μg/tick, the “EC50 … (dead or moribund fleas)” value (Ctenocephalides felis [3]) was < 5 μg/cm^2 and the “EC50 … (killed or moribund)” value (Ctenocephalides felis [2]) was < 20 ppm.
For `COc1cc(C(F)(F)F)cc(C2(C(F)(F)F)CC(c3ccc(C(=O)NCC(=O)NCC(F)(F)F)c(C)c3)=NO2)n1` (single isomer, unassigned) [Example 1.9], the “EC50 … (no eggs laid or eggs infertile)” value [1] was < 0.5 μg/tick, the “EC50 … (dead or moribund fleas)” value (Ctenocephalides felis [3]) was < 5 μg/cm^2 and the “EC50 … (dead or moribund tick larvae)” value (Rhipicephalus microplus) was < 0.05 μg/cm^2.
In the case of `Cc1cc(C2=NOC(c3cc(C(F)(F)F)cc(Br)n3)(C(F)(F)F)C2)ccc1C(=O)NCC(=O)NCC(F)(F)F` (single isomer, unassigned) [Example 1.5], the “EC50 … (no eggs laid or eggs infertile)” value [1] is reported as < 0.5 μg/tick, the “EC50 … (dead or moribund fleas)” value (Ctenocephalides felis [3]) is reported as < 5 μg/cm^2 and the “EC50 … (dead or moribund tick larvae)” value (Rhipicephalus microplus) is reported as < 0.05 μg/cm^2.
`Cc1cc(C2=NOC(c3cc(C(F)(F)F)cc(F)n3)(C(F)(F)F)C2)ccc1C(=O)NCC(=O)NCC(F)(F)F` (single isomer, unassigned) [Example 1.16] was tested, and the “EC50 … (killed or moribund)” value (Ctenocephalides felis [2]) was < 20 ppm.
In the case of `Cc1cc(C2=NOC(c3cc(Cl)cc(C(F)(F)F)n3)(C(F)(F)F)C2)ccc1C(=O)NCC(=O)NCC(F)(F)F` (single isomer, unassigned) [Example 1.11], the “EC50 … (no eggs laid or eggs infertile)” value [1] is reported as < 0.5 μg/tick and the “EC50 … (dead or moribund tick larvae)” value (Rhipicephalus microplus) is reported as < 0.05 μg/cm^2.
For `Cc1cc(C2=NOC(c3cc(Cl)cc(C(F)(F)F)n3)(C(F)(F)F)C2)ccc1C(=O)NCC(=O)NCC(F)(F)F` (single isomer, unassigned) [Example 1.12], the “EC50 … (killed or moribund)” value (Ctenocephalides felis [2]) was < 20 ppm.

Reference: patent US20240270729A1, “(THI)OXAZOLINE PESTICIDES” (ELANCO TIERGESUNDHEIT AG, priority 2021, published 2024)
